Assay results reported in paper PMC7601683.
Substitutions are numbered along the chain they refer to. No constants are given. Whether binding was seen depends on the method and setting. Binding seen in cells or lysates may run through a third protein. Some entries that bind do so weakly or less than the wild type. Tags and fused reporters may be left off the sequences shown.

Protein sequences, listed by entry. Tags and fused reporters are not part of them. Lines headed by an entry give the natural chain unless they say otherwise; changes in a name come on top. Chains listed by the source or under a name are the forms on record and can include a tag or linker.
CD44 standard isoform, Ha-tagged (human) (P16070-12, form named): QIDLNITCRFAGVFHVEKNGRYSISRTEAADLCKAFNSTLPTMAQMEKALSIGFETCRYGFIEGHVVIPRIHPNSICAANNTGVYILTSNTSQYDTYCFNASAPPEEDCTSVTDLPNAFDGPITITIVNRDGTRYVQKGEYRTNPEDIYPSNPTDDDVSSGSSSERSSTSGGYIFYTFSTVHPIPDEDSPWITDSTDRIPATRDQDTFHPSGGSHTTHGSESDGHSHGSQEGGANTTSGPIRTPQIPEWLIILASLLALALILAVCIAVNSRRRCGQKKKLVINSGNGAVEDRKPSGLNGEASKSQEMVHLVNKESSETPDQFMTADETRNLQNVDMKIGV
CD44sC9 isoform (CD44s with truncated cytosolic domain), Ha-tagged (human) (P16070-15, form named): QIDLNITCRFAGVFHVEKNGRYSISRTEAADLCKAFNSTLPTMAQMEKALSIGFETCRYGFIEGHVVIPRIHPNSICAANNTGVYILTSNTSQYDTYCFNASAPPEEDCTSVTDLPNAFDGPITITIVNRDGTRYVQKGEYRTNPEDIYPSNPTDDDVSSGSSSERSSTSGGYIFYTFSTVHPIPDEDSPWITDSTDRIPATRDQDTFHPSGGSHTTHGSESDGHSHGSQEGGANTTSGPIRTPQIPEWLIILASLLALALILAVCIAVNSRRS
CD44v8-10 isoform, Ha-tagged (human) (P16070-10, form named): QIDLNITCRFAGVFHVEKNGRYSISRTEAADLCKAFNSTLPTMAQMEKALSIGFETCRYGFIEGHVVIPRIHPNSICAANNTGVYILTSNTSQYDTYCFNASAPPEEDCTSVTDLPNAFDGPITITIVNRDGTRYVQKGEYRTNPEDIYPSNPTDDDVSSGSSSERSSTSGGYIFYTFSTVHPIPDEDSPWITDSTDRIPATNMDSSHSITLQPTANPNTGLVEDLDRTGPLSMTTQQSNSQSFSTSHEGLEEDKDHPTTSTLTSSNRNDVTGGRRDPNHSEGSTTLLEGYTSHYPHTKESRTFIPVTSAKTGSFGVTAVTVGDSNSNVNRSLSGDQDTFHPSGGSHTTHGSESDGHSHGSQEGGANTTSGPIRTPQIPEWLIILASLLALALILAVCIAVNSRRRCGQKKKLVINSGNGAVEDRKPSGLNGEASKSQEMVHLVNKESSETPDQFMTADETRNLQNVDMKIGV
CD44v3-10 isoform, Ha-tagged (human) (P16070-4, form named): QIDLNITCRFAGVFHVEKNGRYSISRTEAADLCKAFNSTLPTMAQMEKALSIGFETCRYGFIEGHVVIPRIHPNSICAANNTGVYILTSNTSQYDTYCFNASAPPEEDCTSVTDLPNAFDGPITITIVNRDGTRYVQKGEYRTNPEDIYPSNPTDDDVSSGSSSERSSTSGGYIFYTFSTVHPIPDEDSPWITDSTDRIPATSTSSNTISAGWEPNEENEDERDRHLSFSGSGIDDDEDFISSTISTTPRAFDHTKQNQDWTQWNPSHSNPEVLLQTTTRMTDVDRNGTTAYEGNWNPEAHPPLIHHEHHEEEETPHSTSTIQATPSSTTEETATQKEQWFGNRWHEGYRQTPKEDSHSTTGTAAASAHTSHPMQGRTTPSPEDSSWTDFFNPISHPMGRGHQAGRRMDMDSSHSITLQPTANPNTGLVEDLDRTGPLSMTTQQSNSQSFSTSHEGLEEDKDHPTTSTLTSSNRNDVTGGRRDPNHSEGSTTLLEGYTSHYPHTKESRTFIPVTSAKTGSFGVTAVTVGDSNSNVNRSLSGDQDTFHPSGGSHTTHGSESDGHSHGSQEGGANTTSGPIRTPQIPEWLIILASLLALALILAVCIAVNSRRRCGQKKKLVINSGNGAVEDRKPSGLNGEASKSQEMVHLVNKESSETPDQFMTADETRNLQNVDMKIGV

Key:
Assay in all cases: co-IP; HEK293T cells transiently co-transfected with FLAG-tagged podoplanin constructs and Ha-tagged CD44 isoforms; lysed after 24 h in IP buffer (50 mM Tris-HCl pH 7.5, 100 mM NaCl, 5 mM EDTA, 0.5% NP-40, 10% glycerol); about 750 μg lysate, anti-FLAG mAb and protein G Dynabeads overnight at 4 °C; blot with anti-Ha
[1] = target: T1, PDPN-PLAG3/4Tm, FLAG-tagged (human) (UniProt Q86YL7)
T1 sequence: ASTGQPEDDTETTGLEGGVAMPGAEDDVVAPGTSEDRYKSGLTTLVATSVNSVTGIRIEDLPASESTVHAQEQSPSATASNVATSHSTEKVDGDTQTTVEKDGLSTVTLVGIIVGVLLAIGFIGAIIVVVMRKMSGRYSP

[2] = target: T2, PDPN-G137L, FLAG-tagged (human) (UniProt Q86YL7)
T2 sequence: T1 sequence with A30T, A63T, G115L

[3] = target: T3, PDPN-S/Tm, FLAG-tagged (human) (UniProt Q86YL7)
T3 sequence: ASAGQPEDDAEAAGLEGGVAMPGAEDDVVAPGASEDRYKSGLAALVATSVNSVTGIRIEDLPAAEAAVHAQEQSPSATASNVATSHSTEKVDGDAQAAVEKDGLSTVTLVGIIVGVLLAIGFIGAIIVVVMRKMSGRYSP

[4] = target: T4, PDPN-PLAG4Tm, FLAG-tagged (human) (UniProt Q86YL7)
T4 sequence: T1 sequence with A30T

[5] = target: T5, podoplanin wild-type, FLAG-tagged (human) (human) (UniProt Q86YL7)
T5 sequence: T1 sequence with A30T, A63T

[6] = target: T6, PDPN-PLAG3m, FLAG-tagged (human) (UniProt Q86YL7)
T6 sequence: T1 sequence with E25A, D26A, A63T

[7] = target: T7, PDPN-PLAG3Tm, FLAG-tagged (human) (UniProt Q86YL7)
T7 sequence: T1 sequence with A63T

| Substance | binding [1] | binding [2] | binding [3] | binding [4] | binding [5] | binding [6] | binding [7] |
| --- | --- | --- | --- | --- | --- | --- | --- |
| CD44 standard isoform, Ha-tagged (human) (from UniProt P16070-12 21-361) | binds | binds | binds | binds | binds | binds | binds |
| CD44sC9 isoform (CD44s with truncated cytosolic domain), Ha-tagged (human) (from UniProt P16070-15 21-294) | – | – | – | – | binds weakly | – | – |
| CD44v8-10 isoform, Ha-tagged (human) (from UniProt P16070-10 21-493) | – | – | – | – | binds | – | – |
| CD44v3-10 isoform, Ha-tagged (human) (from UniProt P16070-4 21-699) | – | – | – | – | binds | – | – |
